Results are given as percent effect. The controls that fix the scale are not given in the record; negative values are as filed. This is an unselected part of the compounds tested. Two or more numbers in one place are separate tests of the same structure; such repeats can differ widely.

Sequences of proteins named here, by UniProt entry; tags and fusion partners are left off.
UniProt P9WFT3, whole entry: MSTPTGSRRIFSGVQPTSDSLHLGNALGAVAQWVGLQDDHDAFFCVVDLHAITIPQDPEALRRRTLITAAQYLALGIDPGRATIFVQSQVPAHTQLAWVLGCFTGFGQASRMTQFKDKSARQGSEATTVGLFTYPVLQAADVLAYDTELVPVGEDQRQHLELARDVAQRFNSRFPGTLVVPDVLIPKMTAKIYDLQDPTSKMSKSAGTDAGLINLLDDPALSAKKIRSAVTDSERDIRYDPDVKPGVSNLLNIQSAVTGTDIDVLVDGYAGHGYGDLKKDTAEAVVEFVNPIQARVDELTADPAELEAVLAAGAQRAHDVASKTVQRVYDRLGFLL

MtTrpRS: 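Enzyme assay of tryptophanyl-tRNA synthetase; the read-out is not stated. Target: Tryptophan-tRNA ligase, Mycobacterium tuberculosis (UniProt P9WFT3). Tested at 10 µM. Higher most likely means stronger inhibition; the record gives no direction and few retests gave an IC50. Of about 65,000 compounds tested this way, about 64 (0.098%) reached 50% or more in at least one test.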
Leishmania in macrophages: 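Cell assay of Leishmania donovani living inside macrophages; the read-out is not stated. Compounds at 30 µM. Higher reads as stronger inhibition (inferred: compounds with an IC50 in retests scored well above the rest). About 69,000 compounds were tested under these conditions; 1.5% (about 1,000) showed 50% or more at least once.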

For CC(C#N)NS(=O)(=O)c1cccc(C(C)C)c1 (centres unmarked) the result was MtTrpRS: 1.888%; Leishmania in macrophages: 12.56%.
For CCc1nc(CCNS(=O)(=O)c2cccc(C(=O)N(C)CC)c2)cs1 the result was MtTrpRS: 6.173%; Leishmania in macrophages: 8.212%.
For COCC(Nc1nc(N(C)C)nc2c1CCNCC2)c1ccccn1 (centres unmarked) the result was MtTrpRS: 6.209%; Leishmania in macrophages: -1.22% and 37.85%.
For O=C(c1nc(Cc2c[nH]c3ccccc23)no1)N1CCOCC1 the result was MtTrpRS: 17.85%; Leishmania in macrophages: 15.47%.
For O=C(CS(=O)(=O)Cc1cc(Cl)c2c(c1)OCO2)N1CCCCCC1 the result was MtTrpRS: -3.155%; Leishmania in macrophages: 45.05%.
For Cc1nc(NCCc2ccccc2)cc(C(=O)N2CCOCC2)n1 the result was MtTrpRS: 6.738%; Leishmania in macrophages: 21.35%.
For O=C1NC2(CCN(Cc3nccs3)CC2)CC1c1ccncc1 (centres unmarked) the result was MtTrpRS: 2.589%.
For c1cc(-c2cnccn2)cc(-c2ccn(CCCN3CCCCC3)n2)c1 the result was MtTrpRS: -3.958%; Leishmania in macrophages: 8.364%.
For CCS(=O)(=O)N1CCC2(CC1)CC(Oc1ccccn1)CO2 (centres unmarked) the result was MtTrpRS: -0.9923%.
For COc1cc(C2Nc3cc(Cl)ccc3C3=NCCN32)ccc1O (centres unmarked) the result was Leishmania in macrophages: 2.704%.
For O=C(c1cc(=O)n(-c2ccccc2)[nH]1)N1CCCC(c2ccn[nH]2)C1 (centres unmarked) the result was MtTrpRS: 0.153%; Leishmania in macrophages: -57.51%.
For CCC(Nc1ccc(CCN2CCCCC2)cc1)C(N)=O (centres unmarked) the result was MtTrpRS: 0.7651%; Leishmania in macrophages: 49.88%.
For CC(C#N)CSc1ccccc1NCC(=O)NC(C1CC1)C1CC1 (centres unmarked) the result was MtTrpRS: 1.852%; Leishmania in macrophages: 18.34%.
For c1csc(N2CCN(c3ncnc4sccc34)CC2)n1 the result was MtTrpRS: -1.06%; Leishmania in macrophages: 20.84%.
For O=C1CC2(CCCC2)CC(=O)N1Cc1nccs1 the result was MtTrpRS: 0.2513%; Leishmania in macrophages: 32.78%.
For c1c(CN2CCCCC2)nc2n1CCN(CC1CC1)C2 the result was MtTrpRS: 2.124%; Leishmania in macrophages: -3.675%.
For CCc1cc(CN(C)C(=O)CN2CC3(CCNCC3)OC2=O)on1 the result was MtTrpRS: 9.185%; Leishmania in macrophages: 2.05%.
For CN1CCCN(c2ncnc(N3CCOCC3)c2N)CC1 the result was Leishmania in macrophages: 15.72%.
For CC1=Nc2c(c(=O)[nH]n2C(C)C)C(c2ccc(F)c(F)c2)S1 (centres unmarked) the result was MtTrpRS: -1.005%; Leishmania in macrophages: 11.15%.
For CC1CCCN(Cc2c(C3CCOCC3)[nH]c3ncccc23)C1 (centres unmarked) the result was MtTrpRS: -0.4181%; Leishmania in macrophages: -9.805%.
For CC(=O)Nc1ccc(-c2ccccc2NC(=O)CN)cc1 the result was MtTrpRS: -3.778%; Leishmania in macrophages: -6.796%.
For Cc1cc(CN[C@H](C(N)=O)[C@@H](C)O)c(C)s1 the result was MtTrpRS: -3.212%; Leishmania in macrophages: -9.874%.
For COCCNC(=O)Cn1c(-c2ccc(F)cc2)nc(C)c(CCO)c1=O the result was MtTrpRS: -0.5693%; Leishmania in macrophages: 14.08%.

3 of the entries, repeated:

structure	MtTrpRS	Leishmania in macrophages
CC(=O)Nc1ccc(-c2ccccc2NC(=O)CN)cc1	-3.778	-6.796
O=C(CS(=O)(=O)Cc1cc(Cl)c2c(c1)OCO2)N1CCCCCC1	-3.155	45.05
c1cc(-c2cnccn2)cc(-c2ccn(CCCN3CCCCC3)n2)c1	-3.958	8.364

The values are deposited in ChEMBL (CHEMBL3988442, “University of Dundee, Small-Polar-MMV Screening Library” (2021)).